Data published in patent publication US20240382511A1, “NICOTINAMIDE MONONUCLEOTIDE DERIVATIVES AND USE THEREOF FOR THE TREATMENT OF HEART FAILURE WITH PRESERVED EJECTION FRACTION” (NUVAMID SA, priority 2021, published 2024).

System: free choice fed hamsters (diet-induced NASH hamster model of HFpEF)
Assay: Body weight, food and water intake in diet-induced NASH hamster model of HFpEF
Type: in vivo, hamster (Golden Syrian)
Details: 5 weeks of treatment once a day per os (compound 001 600 mg/kg, vardenafil 10 mg/kg), vs vehicle, FIG. 6
Source text: Animals. Male hamsters (Golden Syrian), 4-week-old at receipt, were acclimated at least 5 days before the beginning of the study. Control animals were fed with a chow diet with normal tap water. For diet-induced NASH model, animals were fed with a free choice diet consisting of (a) a chow diet with normal water and (b) a high fat/cholesterol diet with 10% fructose enriched tap water. Food and water intake have been measured once a week. Dosage regimen and test groups. Animals were divided into 5 groups: [table] The study was conducted over 20 weeks. Treatments were administered from week 15 until the end of the experiment (duration 5 weeks), once a day, per os, at a rate of 10 ml/kg. Water was used as vehicle. Vardenafil was used as reference compound. Data analysis. All graphs represent means±standard error of mean (sem). Statistical analysis has been performed using GraphPad Prism 5 software. Single comparisons were made using Student's unpaired t-test or Mann Whitney in case of significant variance. Multiple comparisons have been carried out with two-way ANOVA followed by post-hoc Bonferroni test or one-way ANOVA followed by post-hoc Dunnett or Kruskall-Wallis test in case of significant variance. For all tests, p<0.05 was considered significant. During 20 weeks of diet including 5 weeks under treatment with vehicle, compound 001, vardenafil or both, body weight, food and water intake were recorded once a week. Blood was collected at week 14 and week 20 to measure plasma insulin, glucose and ALT/AST, and NT-pro BNP level was evaluated at week 20. Echocardiographic studies were assessed at week 14 and week 20. Finally, heart, liver and lungs were collected to be weighted and normalized to tibia length.

NC(=O)c1ccc[n+]([C@@H]2O[C@H](COP(=O)([O-])O)[C@@H](O)[C@H]2O)c1 [compound 001, nicotinamide mononucleotide]
fructose consumption (fructose-supplemented water): significant reduction in fructose consumption | high fat/cholesterol diet consumption: seemed to decrease high fat/cholesterol diet consumption | water consumption: increase in water consumption
